From the supplement of paper PMC8728848 come the findings set out here.

The other results are listed elsewhere or left out.

Holding throughout (assay): glycan array binding signal (z-score within array); higher = stronger binding
Holding throughout (conditions): glycan notation: IUPAC condensed, linker removed

In assay [1] the target is Gal(b1-4)GlcNAc(b1-2)[Gal(b1-4)GlcNAc(b1-6)]Man(a1-6)[GlcNAc(b1-4)][Gal(b1-4)GlcNAc(b1-2)Man(a1-3)]Man(b1-4)GlcNAc(b1-4)GlcNAc. The gist of the method:
(§1)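 Columns mapping to the same glycan were averaged after glycan names were converted to IUPAC-condensed notation. The data come from 3228 arrays in the Consortium for Functional Glycomics database, limited to those with an available protein sequence. Binding is reported as a within-array Z-score averaged across arrays of one protein sequence and across linkers.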

The target in assay [2] is Gal(b1-4)GlcNAc(b1-2)[Gal(b1-4)GlcNAc(b1-6)]Man(a1-6)[GlcNAc(b1-4)][Gal(b1-4)GlcNAc(b1-2)[Gal(b1-4)GlcNAc(b1-4)]Man(a1-3)]Man(b1-4)GlcNAc(b1-4)[Fuc(a1-6)]GlcNAc. The gist of the method: as §1
Assay [3] concerns the target Gal(b1-4)GlcNAc(b1-3)Gal(b1-3)GalNAc. The gist of the method: as §1
The target in assay [4] is Gal(b1-4)GlcNAc(b1-3)Gal(b1-3)GlcNAc. The gist of the method: as §1
The target of assay [5] is Gal(b1-4)GlcNAc(b1-3)Gal(b1-4)Glc. In outline: as §1
Assay [6] has as its target Gal(b1-4)GlcNAc(b1-3)Gal(b1-4)GlcNAc. In outline:
as §1

The target in assay [7] is Gal(b1-4)GlcNAc(b1-3)Gal(b1-4)GlcNAc(b1-2)Man(a1-3)[Gal(b1-4)GlcNAc(b1-3)Gal(b1-4)GlcNAc(b1-2)Man(a1-6)]Man(b1-4)GlcNAc(b1-4)GlcNAc. In outline: as §1
The target of assay [8] is Gal(b1-4)GlcNAc(b1-3)Gal(b1-4)GlcNAc(b1-2)Man(a1-3)[Gal(b1-4)GlcNAc(b1-3)Gal(b1-4)GlcNAc(b1-2)Man(a1-6)]Man(b1-4)GlcNAc(b1-4)[Fuc(a1-6)]GlcNAc. The gist of the method: as §1
The target in assay [9] is Gal(b1-4)GlcNAc(b1-3)Gal(b1-4)GlcNAc(b1-2)[Gal(b1-4)GlcNAc(b1-3)Gal(b1-4)GlcNAc(b1-6)]Man(a1-6)[Gal(b1-4)GlcNAc(b1-3)Gal(b1-4)GlcNAc(b1-2)Man(a1-3)]Man(b1-4)GlcNAc(b1-4)GlcNAc. In outline:
as §1

Assay [10] concerns the target Gal(b1-4)GlcNAc(b1-3)Gal(b1-4)GlcNAc(b1-2)[Gal(b1-4)GlcNAc(b1-3)Gal(b1-4)GlcNAc(b1-6)]Man(a1-6)[Gal(b1-4)GlcNAc(b1-3)Gal(b1-4)GlcNAc(b1-2)Man(a1-3)]Man(b1-4)GlcNAc(b1-4)[Fuc(a1-6)]GlcNAc. The gist of the method:
as §1

For assay [11], the target named is Gal(b1-4)GlcNAc(b1-3)Gal(b1-4)GlcNAc(b1-3)Gal(b1-4)GlcNAc. In outline: as §1
Assay [12] concerns the target Gal(b1-4)GlcNAc(b1-3)Gal(b1-4)GlcNAc(b1-3)Gal(b1-4)GlcNAc(b1-2)Man(a1-3)[Gal(b1-4)GlcNAc(b1-3)Gal(b1-4)GlcNAc(b1-3)Gal(b1-4)GlcNAc(b1-2)Man(a1-6)]Man(b1-4)GlcNAc(b1-4)GlcNAc. In outline: as §1
In assay [13] the target is Gal(b1-4)GlcNAc(b1-3)Gal(b1-4)GlcNAc(b1-3)Gal(b1-4)GlcNAc(b1-2)Man(a1-3)[Gal(b1-4)GlcNAc(b1-3)Gal(b1-4)GlcNAc(b1-3)Gal(b1-4)GlcNAc(b1-2)Man(a1-6)]Man(b1-4)GlcNAc(b1-4)[Fuc(a1-6)]GlcNAc. In outline:
as §1

Assay [14] has as its target Gal(b1-4)GlcNAc(b1-3)Gal(b1-4)GlcNAc(b1-3)Gal(b1-4)GlcNAc(b1-2)[Gal(b1-4)GlcNAc(b1-3)Gal(b1-4)GlcNAc(b1-3)Gal(b1-4)GlcNAc(b1-6)]Man(a1-6)[Gal(b1-4)GlcNAc(b1-3)Gal(b1-4)GlcNAc(b1-3)Gal(b1-4)GlcNAc(b1-2)Man(a1-3)]Man(b1-4)GlcNAc(b1-4)[Fuc(a1-6)]GlcNAc. In outline: as §1
Assay [15] deals with Gal(b1-4)GlcNAc(b1-3)Gal(b1-4)GlcNAc(b1-3)Gal(b1-4)GlcNAc(b1-3)Gal(b1-4)GlcNAc(b1-2)Man(a1-3)[Gal(b1-4)GlcNAc(b1-3)Gal(b1-4)GlcNAc(b1-3)Gal(b1-4)GlcNAc(b1-3)Gal(b1-4)GlcNAc(b1-2)Man(a1-6)]Man(b1-4)GlcNAc(b1-4)GlcNAc. The gist of the method:
as §1

Assay [16] concerns the target Gal(b1-4)GlcNAc(b1-3)Gal(b1-4)GlcNAc(b1-3)Gal(b1-4)GlcNAc(b1-3)Gal(b1-4)GlcNAc(b1-2)Man(a1-3)[Gal(b1-4)GlcNAc(b1-3)Gal(b1-4)GlcNAc(b1-3)Gal(b1-4)GlcNAc(b1-3)Gal(b1-4)GlcNAc(b1-2)Man(a1-6)]Man(b1-4)GlcNAc(b1-4)[Fuc(a1-6)]GlcNAc. In outline:
as §1

Assay [17] concerns the target Gal(b1-4)GlcNAc(b1-3)Gal(b1-4)GlcNAc(b1-3)Gal(b1-4)GlcNAc(b1-3)Gal(b1-4)GlcNAc(b1-2)[Gal(b1-4)GlcNAc(b1-3)Gal(b1-4)GlcNAc(b1-3)Gal(b1-4)GlcNAc(b1-3)Gal(b1-4)GlcNAc(b1-6)]Man(a1-6)[Gal(b1-4)GlcNAc(b1-3)Gal(b1-4)GlcNAc(b1-3)Gal(b1-4)GlcNAc(b1-3)Gal(b1-4)GlcNAc(b1-2)Man(a1-3)]Man(b1-4)GlcNAc(b1-4)[Fuc(a1-6)]GlcNAc. The gist of the method: as §1
Assay [18] has as its target Gal(b1-4)GlcNAc(b1-3)Gal(b1-4)GlcNAc(b1-3)Gal(b1-4)GlcNAc(b1-3)Gal(b1-4)GlcNAc(b1-3)Gal(b1-4)GlcNAc(b1-2)Man(a1-3)[Gal(b1-4)GlcNAc(b1-3)Gal(b1-4)GlcNAc(b1-3)Gal(b1-4)GlcNAc(b1-3)Gal(b1-4)GlcNAc(b1-3)Gal(b1-4)GlcNAc(b1-2)Man(a1-6)]Man(b1-4)GlcNAc(b1-4)GlcNAc. The gist of the method:
as §1

The target in assay [19] is Gal(b1-4)GlcNAc(b1-3)Gal(b1-4)GlcNAc(b1-3)Gal(b1-4)GlcNAc(b1-3)Gal(b1-4)GlcNAc(b1-3)Gal(b1-4)GlcNAc(b1-2)Man(a1-3)[Gal(b1-4)GlcNAc(b1-3)Gal(b1-4)GlcNAc(b1-3)Gal(b1-4)GlcNAc(b1-3)Gal(b1-4)GlcNAc(b1-3)Gal(b1-4)GlcNAc(b1-2)Man(a1-6)]Man(b1-4)GlcNAc(b1-4)[Fuc(a1-6)]GlcNAc. In outline: as §1
Assay [20] deals with Gal(b1-4)GlcNAc(b1-3)Gal(b1-4)GlcNAc(b1-3)Gal(b1-4)GlcNAc(b1-3)Gal(b1-4)GlcNAc(b1-3)Gal(b1-4)GlcNAc(b1-2)[Gal(b1-4)GlcNAc(b1-3)Gal(b1-4)GlcNAc(b1-3)Gal(b1-4)GlcNAc(b1-3)Gal(b1-4)GlcNAc(b1-3)Gal(b1-4)GlcNAc(b1-6)]Man(a1-6)[Gal(b1-4)GlcNAc(b1-3)Gal(b1-4)GlcNAc(b1-3)Gal(b1-4)GlcNAc(b1-3)Gal(b1-4)GlcNAc(b1-3)Gal(b1-4)GlcNAc(b1-2)Man(a1-3)]Man(b1-4)GlcNAc(b1-4)[Fuc(a1-6)]GlcNAc. In outline: as §1

The target of assay [21] is Gal(b1-4)GlcNAc(b1-3)Gal(b1-4)GlcNAc(b1-3)Gal(b1-4)GlcNAc(b1-3)Gal(b1-4)GlcNAc(b1-3)Gal(b1-4)GlcNAc(b1-3)Gal(b1-4)GlcNAc(b1-2)Man(a1-3)[Gal(b1-4)GlcNAc(b1-3)Gal(b1-4)GlcNAc(b1-3)Gal(b1-4)GlcNAc(b1-3)Gal(b1-4)GlcNAc(b1-3)Gal(b1-4)GlcNAc(b1-3)Gal(b1-4)GlcNAc(b1-2)Man(a1-6)]Man(b1-4)GlcNAc(b1-4)GlcNAc. In outline:
as §1

Assay [22] deals with Gal(b1-4)GlcNAc(b1-3)Gal(b1-4)GlcNAc(b1-3)GalNAc. The gist of the method:
as §1

Assay [23] concerns the target Gal(b1-4)GlcNAc(b1-3)Gal(b1-4)GlcNAc(b1-3)[Gal(b1-4)GlcNAc(b1-3)Gal(b1-4)GlcNAc(b1-6)]GalNAc. The gist of the method:
as §1

B1: YghJ (Escherichia coli), E3PJ90 (protein)
chain: MNKKFKYKKSLLAAILSATLLAGCDGGGSGSSSDTPPVDSGTGSLPEVKPDPTPNPEPTPEPTPDPEPTPEPIPDPEPTPEPEPEPVPTKTGYLTLGGSQRVTGATCNGESSDGFTFKPGEDVTCVAGNTTIATFNTQSEAARSLRAVEKVSFSLEDAQELAGSDDKKSNAVSLVTSSNSCPANTEQVCLTFSSVIESKRFDSLYKQIDLAPEEFKKLVNEEVENNAATDKAPSTHTSPVVPVTTPGTKPDLNASFVSANAEQFYQYQPTEIILSEGRLVDSQGYGVAGVNYYTNSGRGVTGENGEFSFSWGEAISFGIDTFELGSVRGNKSTIALTELGDEVRGANIDQLIHRYSTTGQNNTRVVPDDVRKVFAEYPNVINEIINLSLSNGATLGEGEQVVNLPNEFIEQFNTGQAKEIDTAICAKTDGCNEARWFSLTTRNVNDGQIQGVINKLWGVDTNYKSVSKFHVFHDSTNFYGSTGNARGQAVVNISNAAFPILMARNDKNYWLAFGEKRAWDKNELAYITEAPSIVRPENVTRETASFNLPFISLGQVGDGKLMVIGNPHYNSILRCPNGYSWNGGVNKDGQCTLNSDPDDMKNFMENVLRYLSNDRWLPDAKSSMTVGTNLETVYFKKHGQVLGNSAPFAFHKDFTGITVKPMTSYGNLNPDEVPLLILNGFEYVTQWGSDPYSIPLRADTSKPKLTQQDVTDLIAYMNKGGSVLIMENVMSNLKEESASGFVRLLDAAGLSMALNKSVVNNDPQGYPDRVRQRRSTPIWVYERYPAVDGKPPYTIDDTTKEVIWKYQQENKPDDKPKLEVASWQEEVEGKQVTQFAFIDEADHKTPESLAAAKQRILDAFPGLEVCKDSDYHYEVNCLEYRPGTDVPVTGGMYVPQYTQLDLSADTAKAMLQAADLGTNIQRLYQHELYFRTNGRQGERLNSVDLERLYQNMSVWLWNETKYRYEEGKEDELGFKTFTEFLNCYTNNAYVGTQCSAELKKSLIDNKMIYGEESSKAGMMNPSYPLNYMEKPLTRLMLGRSWWDLNIKVDVEKYPGVVNTNGETVTQNINLYSAPTKWFAGNMQSTGLWAPAQQEVSIESKSTVPVTVTVALADDLTGREKHEVSLNRPPRVTKTYDLKANDKVTFKVPYGGLIYIKGDSKEVQSADFTFTGVVKAPFYKDGKWQHDLNSPAPLGELESASFVYTTPKKNLNASNYTGGLEQFANDLDTFASSMNDFYGRDSEDGKHRMFTYKNLPGHKHRFANDVQISIGDAHSGYPVMNSSFSPNSTTLPTTPLNDWLIWHEVGHNAAETPLTVPGATEVANNVLALYMQDRYLGKMNRVADDITVAPEYLEESNGQAWARGGAGDRLLMYAQLKEWAEKNFDIKKWYPDGTPLPEFYSEREGMKGWNLFQLMHRKARGDEVSNDKFGGKNYCAESNGNAADTLMLCASWVAQTDLSEFFKKWNPGANAYQLPGASEMSFEGGVSQSAYNTLASLDLPKPEQGPETINQVTEHKMSAE
Turning to B1, the “glycan array binding signal (z-score)” value is -0.084 in assay [1]; -0.025 in [2]; -0.534 in assay [3]; -0.474 in [4]; 0.172 in assay [5]; 0.369 in [6]. The “glycan array binding signal (z-score)” value in [7] was 0.91; in assay [8] it was 1.13; in [9] it was 0.654; in assay [10] it was 0.923; in assay [11], -1.22; in assay [12], 0.559. Besides, the “glycan array binding signal (z-score)” value in [13] was 2.23; in assay [14] it was 1.68; in assay [15], -0.172; in [16] it was 2.84; in assay [17], 1.8; in assay [18], -0.29. Moreover, the “glycan array binding signal (z-score)” value was -0.13 in [19]; 0.415 in [20]; 0.215 in assay [21]; 0.193 in [22]; 0.488 in assay [23].
